No constants are given. Whether binding was seen depends on the method and setting. In cells and extracts the contact can be indirect. Some results given as binding are weak or reduced against the parent protein; the word gives no strength. Sequences can lack the tags named with a protein.

By UniProt entry, the sequences of proteins in these tests, tags left out.
UniProt O15198: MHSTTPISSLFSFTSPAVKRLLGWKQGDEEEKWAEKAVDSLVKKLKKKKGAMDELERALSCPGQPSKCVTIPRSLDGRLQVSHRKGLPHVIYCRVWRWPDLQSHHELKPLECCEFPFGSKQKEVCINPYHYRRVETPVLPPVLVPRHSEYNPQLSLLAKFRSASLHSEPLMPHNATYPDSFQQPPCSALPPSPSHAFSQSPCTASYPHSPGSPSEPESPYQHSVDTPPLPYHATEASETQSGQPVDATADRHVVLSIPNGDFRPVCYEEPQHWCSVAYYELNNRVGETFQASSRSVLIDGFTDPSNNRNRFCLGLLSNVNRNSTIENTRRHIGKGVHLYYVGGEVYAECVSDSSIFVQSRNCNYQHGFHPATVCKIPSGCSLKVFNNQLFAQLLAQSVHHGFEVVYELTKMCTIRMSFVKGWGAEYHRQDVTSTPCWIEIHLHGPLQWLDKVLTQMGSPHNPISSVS

From paper PMC8630118 come the findings set out here.

The assay addresses Flag-tagged SMAD9 (UniProt O15198). Briefly: co-IP; HEK293T cells transfected with Myc-ASB2 and Flag-SMAD9, 24 h after transfection; Flag-immunoprecipitates (1 mg protein, 10 µL beads, overnight at 4 °C; lysis buffer 1% CHAPS, 150 mM NaCl, 20 mM MOPS, 1 mM EDTA, 10% glycerol), SDS-PAGE and immunoblot. In general terms: Immunoblotting shows a protein as a band on a membrane.

B1: Myc-tagged ASB2 (Ankyrin repeat and SOCS box containing 2) (protein, UniProt Q96Q27 1-635)
chain: MATQISTRGSQCTIGQEEYSLYSSLSEDELVQMAIEQSLADKTRGPTTAEATASACTNRQPAHFYPWTRSTAPPESSPARAPMGLFQGVMQKYSSSLFKTSQLAPADPLIKAIKDGDEEALKTMIKEGKNLAEPNKEGWLPLHEAAYYGQVGCLKVLQRAYPGTIDQRTLQEETAVYLATCRGHLDCLLSLLQAGAEPDISNKSRETPLYKACERKNAEAVKILVQHNADTNHRCNRGWTALHESVSRNDLEVMQILVSGGAKVESKNAYGITPLFVAAQSGQLEALRFLAKYGADINTQASDNASALYEACKNEHEEVVEFLLSQGADANKTNKDGLLPLHIASKKGNYRIVQMLLPVTSRTRIRRSGVSPLHLAAERNHDEVLEALLSARFDVNTPLAPERARLYEDRRSSALYFAVVNNNVYATELLLQHGADPNRDVISPLLVAIRHGCLRTMQLLLDHGANIDAYIATHPTAFPATIMFAMKCLSLLKFLMDLGCDGEPCFSCLYGNGPHPPAPQPSSRFNDAPAADKEPSVVQFCEFVSAPEVSRWAGPIIDVLLDYVGNVQLCSRLKEHIDSFEDWAVIKEKAEPPRPLAHLCRLRVRKAIGKYRIKLLDTLPLPGRLIRYLKYENTQ
As for B1, the binding entry was “binds”.
